Measurements published in PMC6376957.
These are yes or no findings as the source states them, for the method shown. Binding seen in cells or lysates may run through a third protein. Tags and fused reporters may be left off the sequences shown.

Sequences of proteins named here, by UniProt entry; tags and fusion partners are left off.
UniProt P05804: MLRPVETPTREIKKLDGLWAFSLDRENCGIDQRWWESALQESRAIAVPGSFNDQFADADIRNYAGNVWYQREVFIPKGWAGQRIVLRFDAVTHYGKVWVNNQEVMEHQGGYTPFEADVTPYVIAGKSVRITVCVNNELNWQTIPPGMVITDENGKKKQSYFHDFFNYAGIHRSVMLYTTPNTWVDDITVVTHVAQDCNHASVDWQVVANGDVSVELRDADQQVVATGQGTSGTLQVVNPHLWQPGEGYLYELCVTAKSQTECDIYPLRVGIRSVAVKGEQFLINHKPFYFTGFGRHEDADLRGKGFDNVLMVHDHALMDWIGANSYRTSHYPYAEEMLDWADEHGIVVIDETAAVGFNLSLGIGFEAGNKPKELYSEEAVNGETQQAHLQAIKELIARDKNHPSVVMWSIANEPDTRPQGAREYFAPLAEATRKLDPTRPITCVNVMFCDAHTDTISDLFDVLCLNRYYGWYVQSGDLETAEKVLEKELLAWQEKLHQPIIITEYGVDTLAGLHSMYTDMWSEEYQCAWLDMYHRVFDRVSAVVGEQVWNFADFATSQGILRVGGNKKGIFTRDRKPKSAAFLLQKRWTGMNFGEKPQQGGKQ

Target: GUS fused to nYFP (BiFC negative control, in place of OsFTL10) (UniProt P05804)
Assay: split reporter; BiFC in rice protoplasts: GF14c in p35S::cYFP, OsFTL10 in p35S::nYFP; live cell imaging by confocal microscope; GUS in place of either partner as negative control

B1: GF14c fused to cYFP (BiFC) (protein, UniProt Q6ZKC0 1-256)
chain: MSREENVYMAKLAEQAERYEEMVEYMEKVAKTVDVEELTVEERNLLSVAYKNVIGARRASWRIVSSIEQKEEGRGNEEHVTLIKEYRGKIEAELSKICDGILKLLDSHLVPSSTAAESKVFYLKMKGDYHRYLAEFKTGAERKEAAESTMVAYKAAQDIALADLAPTHPIRLGLALNFSVFYYEILNSPDKACNLAKQAFDEAISELDTLGEESYKDSTLIMQLLRDNLTLWTSDLTEDGGDEVKEASKGDACEGQ
With B1 the binding was “no binding”.
